The values below come from patent US9587223B2, “Protocols for making hepatocytes from embryonic stem cells” (Asterias Biotherapeutics, Inc., priority 2000, dated 2017).

The series relates to hES cells (embryoid bodies). Conditions: analogs of butyrate tested at 5 mM. The method, then: In this experiment, hES cells were maintained on primary mouse embryonic fibroblasts in serum-free medium according to standard methods.
The EBs were fed every other day.
Various analogs of butyrate were also tested at 5 mM.

For the compound `CC(C)CC(=O)O` [isovaleric acid], the causing hepatocyte differentiation entry is “effective”.
